Test [1] addresses FLAG-tagged TACO1 (translational activator of cytochrome oxidase subunit I) (mouse) (UniProt Q8K0Z7). Put plainly: co-IP; anti-FLAG M2 magnetic beads on lysates of co-transfected NIH-3T3 cells crosslinked with 2 mM dithiobis[succinimidyl propionate]; lysis in 10 mM Tris-HCl pH 7.5, 260 mM sucrose, 100 mM KCl, 20 mM MgCl2, 1% digitonin; elution with 3x FLAG peptide; blot with anti-GFP and anti-FLAG.

Sequences of proteins named here, by UniProt entry; tags and fusion partners are left off. A change or cut given only in a name is not applied to a line headed by its entry. Residues count along the entry.
UniProt Q8K0Z7: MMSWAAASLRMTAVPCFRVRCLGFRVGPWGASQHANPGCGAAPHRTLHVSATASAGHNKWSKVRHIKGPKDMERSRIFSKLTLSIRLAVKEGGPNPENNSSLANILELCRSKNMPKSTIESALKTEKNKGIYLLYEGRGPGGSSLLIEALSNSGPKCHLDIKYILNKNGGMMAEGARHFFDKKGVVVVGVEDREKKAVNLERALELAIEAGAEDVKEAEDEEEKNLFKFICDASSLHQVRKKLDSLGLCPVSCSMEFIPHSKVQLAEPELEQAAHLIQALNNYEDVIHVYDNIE
UniProt Q8BK72, residues 18-415: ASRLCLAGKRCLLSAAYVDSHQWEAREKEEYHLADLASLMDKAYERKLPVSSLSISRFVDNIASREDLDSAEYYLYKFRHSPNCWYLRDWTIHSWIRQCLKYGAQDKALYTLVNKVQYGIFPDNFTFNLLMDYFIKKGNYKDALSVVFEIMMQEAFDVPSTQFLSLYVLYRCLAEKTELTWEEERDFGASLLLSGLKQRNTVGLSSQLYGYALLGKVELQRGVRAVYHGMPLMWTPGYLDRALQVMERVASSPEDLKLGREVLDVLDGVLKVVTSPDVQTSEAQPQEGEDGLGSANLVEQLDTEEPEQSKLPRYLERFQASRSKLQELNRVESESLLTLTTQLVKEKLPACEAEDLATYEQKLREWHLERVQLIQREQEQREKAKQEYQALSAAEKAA

Test [2] has as its target FLAG-tagged MRPS27 (mouse) (UniProt Q8BK72). The test is described as above.

Results are given in words; binding and its absence hold for the method and conditions named. In cells and extracts the contact can be indirect. Binding can be weak; no strength is given.

“GFP-tagged MRPS27 (from UniProt Q8BK72 18-415)”: the binding entry in test [1] is on record as “binds”. For GFP-tagged TACO1 (from UniProt Q8K0Z7), in test [2], the binding result is “binds”.

The record behind these values is paper PMC4915168.
